Some results were stated once for a whole list of compounds, not compound by compound.
System: SMN-luciferase fusion protein
Assay: Immunoblot of SMN-luciferase fusion protein in SMN2-luc cells
Type: cell-based, human
Settings: SMN2-luc cell line, 24 hours

## CCCC(=O)[O-].[Na+] [sodium butyrate, reference compound]
  increase in SMN-luciferase protein: greater than 9 fold
